From the M2OR odorant receptor database
The list shows a part of the results, in another mix than the full data. The calls were merged from several studies; some rest on single wells. The list shows a part of the results. This is one part of the list.

Assays:
Conditions in all cases: stereoisomer not certain
OR5AN1 (Homo sapiens) = biological target: T1, OR5AN1 (Homo sapiens) (UniProt Q8NGI8)
T1 sequence (whole entry): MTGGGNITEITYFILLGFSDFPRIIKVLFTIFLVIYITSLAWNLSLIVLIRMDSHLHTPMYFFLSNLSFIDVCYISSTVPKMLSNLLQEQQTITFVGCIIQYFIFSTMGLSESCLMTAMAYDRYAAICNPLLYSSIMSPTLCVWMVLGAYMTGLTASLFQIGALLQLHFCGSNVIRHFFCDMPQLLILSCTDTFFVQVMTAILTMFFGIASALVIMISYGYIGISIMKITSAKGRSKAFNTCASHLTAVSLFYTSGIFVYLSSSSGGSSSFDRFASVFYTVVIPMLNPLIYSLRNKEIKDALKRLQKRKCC
Outline: (§1)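 Assay methods differ from source to source, frequently being transient luciferase assays in mammalian cell lines. For each receptor–molecule pair, the label responsive (active) applies when the original authors judged the measured signal statistically different from baseline, and non-responsive (inactive) applies otherwise.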

OR5AR1 (Homo sapiens) = biological target: T2, OR5AR1 (Homo sapiens) (UniProt Q8NGP9)
T2 sequence (whole entry): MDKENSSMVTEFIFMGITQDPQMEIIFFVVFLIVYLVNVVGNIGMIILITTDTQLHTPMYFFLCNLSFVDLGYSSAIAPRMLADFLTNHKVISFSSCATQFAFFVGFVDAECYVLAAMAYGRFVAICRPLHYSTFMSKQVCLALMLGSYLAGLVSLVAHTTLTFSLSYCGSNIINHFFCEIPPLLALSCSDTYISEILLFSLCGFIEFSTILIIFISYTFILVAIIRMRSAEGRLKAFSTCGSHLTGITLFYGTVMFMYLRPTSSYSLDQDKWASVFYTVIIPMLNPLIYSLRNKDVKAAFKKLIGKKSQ
Outline: as §1

OR5AS1 (Homo sapiens) = biological target: T3, OR5AS1 (Homo sapiens) (UniProt Q8N127)
T3 sequence (whole entry): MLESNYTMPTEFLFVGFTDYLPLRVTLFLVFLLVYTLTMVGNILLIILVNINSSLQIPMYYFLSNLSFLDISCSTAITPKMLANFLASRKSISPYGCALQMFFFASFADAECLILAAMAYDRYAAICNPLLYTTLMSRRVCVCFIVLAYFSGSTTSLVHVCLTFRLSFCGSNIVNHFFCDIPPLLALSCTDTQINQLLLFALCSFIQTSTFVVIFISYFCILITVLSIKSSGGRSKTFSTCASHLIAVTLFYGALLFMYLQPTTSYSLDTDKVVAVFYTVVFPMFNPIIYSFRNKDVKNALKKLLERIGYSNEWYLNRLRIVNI
Outline: as §1

OR5AU1 (Homo sapiens) = biological target: T4, OR5AU1 (Homo sapiens) (UniProt Q8NGC0)
T4 sequence (whole entry): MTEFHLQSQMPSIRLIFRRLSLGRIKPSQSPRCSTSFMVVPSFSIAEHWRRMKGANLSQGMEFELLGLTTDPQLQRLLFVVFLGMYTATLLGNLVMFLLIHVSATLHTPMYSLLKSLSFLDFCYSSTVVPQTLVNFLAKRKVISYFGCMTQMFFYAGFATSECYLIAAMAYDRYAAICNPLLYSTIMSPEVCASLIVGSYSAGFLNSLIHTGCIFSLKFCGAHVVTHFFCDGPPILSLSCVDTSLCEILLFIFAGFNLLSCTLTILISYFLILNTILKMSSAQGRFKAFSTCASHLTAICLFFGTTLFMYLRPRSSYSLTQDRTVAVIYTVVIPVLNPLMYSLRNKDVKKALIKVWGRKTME
Outline: as §1

OR5B17 (Homo sapiens) = biological target: T5, OR5B17 (Homo sapiens) (UniProt Q8NGF7)
T5 sequence (whole entry): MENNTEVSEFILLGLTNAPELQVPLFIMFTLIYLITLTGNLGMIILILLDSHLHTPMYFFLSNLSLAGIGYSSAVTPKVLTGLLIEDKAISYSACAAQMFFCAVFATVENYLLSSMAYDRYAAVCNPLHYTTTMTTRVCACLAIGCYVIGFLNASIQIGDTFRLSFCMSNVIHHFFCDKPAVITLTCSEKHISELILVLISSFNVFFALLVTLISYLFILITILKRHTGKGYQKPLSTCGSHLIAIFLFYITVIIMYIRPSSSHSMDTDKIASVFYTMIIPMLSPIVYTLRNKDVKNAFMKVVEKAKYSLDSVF
Outline: as §1

OR5B2 = system: T6, OR5B2
T6 sequence (whole entry): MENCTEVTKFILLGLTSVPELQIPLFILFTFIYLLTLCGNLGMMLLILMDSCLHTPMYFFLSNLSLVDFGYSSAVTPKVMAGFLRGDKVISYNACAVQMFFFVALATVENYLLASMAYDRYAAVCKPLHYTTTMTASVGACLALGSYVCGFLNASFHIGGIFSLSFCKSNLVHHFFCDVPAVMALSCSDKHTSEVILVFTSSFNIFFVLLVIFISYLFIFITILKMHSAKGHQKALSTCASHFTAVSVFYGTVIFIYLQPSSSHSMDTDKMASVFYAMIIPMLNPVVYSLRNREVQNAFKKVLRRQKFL
Outline: as §1

OR5B3 (Homo sapiens) = biological target: T7, OR5B3 (Homo sapiens) (UniProt Q8NH48)
T7 sequence (whole entry): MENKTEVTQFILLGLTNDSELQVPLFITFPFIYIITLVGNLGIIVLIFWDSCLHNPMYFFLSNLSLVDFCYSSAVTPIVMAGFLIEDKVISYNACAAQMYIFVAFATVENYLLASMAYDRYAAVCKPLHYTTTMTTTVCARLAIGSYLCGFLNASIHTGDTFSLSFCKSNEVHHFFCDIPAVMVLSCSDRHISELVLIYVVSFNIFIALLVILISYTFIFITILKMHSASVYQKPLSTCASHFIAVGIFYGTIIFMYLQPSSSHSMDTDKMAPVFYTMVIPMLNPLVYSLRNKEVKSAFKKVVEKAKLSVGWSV
Outline: as §1

OR5BC = system: T8, OR5BC
T8 sequence (whole entry): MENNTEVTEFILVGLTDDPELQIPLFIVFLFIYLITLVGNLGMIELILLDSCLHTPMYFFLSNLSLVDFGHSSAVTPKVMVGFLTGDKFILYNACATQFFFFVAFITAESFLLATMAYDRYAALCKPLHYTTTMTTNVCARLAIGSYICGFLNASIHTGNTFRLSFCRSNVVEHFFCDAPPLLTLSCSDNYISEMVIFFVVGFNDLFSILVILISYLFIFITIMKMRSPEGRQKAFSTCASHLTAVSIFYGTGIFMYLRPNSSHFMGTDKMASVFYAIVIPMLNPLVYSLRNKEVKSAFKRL
Outline: as §1

OR5BL = system: T9, OR5BL
T9 sequence (whole entry): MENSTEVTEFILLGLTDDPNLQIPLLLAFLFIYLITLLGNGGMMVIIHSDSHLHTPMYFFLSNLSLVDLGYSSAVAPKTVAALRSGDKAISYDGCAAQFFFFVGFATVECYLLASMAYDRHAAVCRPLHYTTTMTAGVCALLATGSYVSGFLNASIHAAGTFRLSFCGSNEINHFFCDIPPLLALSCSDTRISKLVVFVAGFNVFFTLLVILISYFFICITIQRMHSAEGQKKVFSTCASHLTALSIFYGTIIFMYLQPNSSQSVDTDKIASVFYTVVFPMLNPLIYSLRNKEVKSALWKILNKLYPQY
Outline: as §1

OR5C1 (Homo sapiens) = biological target: T10, OR5C1 (Homo sapiens) (UniProt Q8NGR4)
T10 sequence (whole entry): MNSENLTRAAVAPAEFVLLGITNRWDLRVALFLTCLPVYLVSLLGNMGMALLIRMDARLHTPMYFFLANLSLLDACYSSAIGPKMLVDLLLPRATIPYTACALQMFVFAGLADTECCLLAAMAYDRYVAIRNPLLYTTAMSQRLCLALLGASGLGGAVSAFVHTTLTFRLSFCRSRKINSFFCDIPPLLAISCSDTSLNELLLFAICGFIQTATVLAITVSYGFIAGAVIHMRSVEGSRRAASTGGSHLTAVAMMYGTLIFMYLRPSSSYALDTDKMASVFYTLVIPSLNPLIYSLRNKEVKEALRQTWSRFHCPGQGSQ
Outline: as §1

OR5DD = system: T11, OR5DD
T11 sequence (whole entry): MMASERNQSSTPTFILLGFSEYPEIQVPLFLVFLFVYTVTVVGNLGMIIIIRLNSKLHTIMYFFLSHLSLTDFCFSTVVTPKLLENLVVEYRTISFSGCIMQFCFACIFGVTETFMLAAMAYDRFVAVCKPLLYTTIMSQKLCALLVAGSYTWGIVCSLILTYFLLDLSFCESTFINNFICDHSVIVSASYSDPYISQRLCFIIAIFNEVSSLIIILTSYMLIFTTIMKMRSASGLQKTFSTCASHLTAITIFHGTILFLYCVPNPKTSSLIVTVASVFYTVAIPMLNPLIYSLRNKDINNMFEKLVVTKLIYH
Outline: as §1

OR5DE = system: T12, OR5DE
T12 sequence (whole entry): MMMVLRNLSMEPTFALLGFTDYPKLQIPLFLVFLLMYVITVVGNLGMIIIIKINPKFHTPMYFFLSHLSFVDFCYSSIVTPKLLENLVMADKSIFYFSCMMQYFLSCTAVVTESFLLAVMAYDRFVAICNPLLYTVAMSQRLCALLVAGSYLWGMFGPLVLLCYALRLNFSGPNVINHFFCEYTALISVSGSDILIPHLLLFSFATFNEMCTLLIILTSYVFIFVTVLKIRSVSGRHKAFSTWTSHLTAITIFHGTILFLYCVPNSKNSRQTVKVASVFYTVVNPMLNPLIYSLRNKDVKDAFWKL
Outline: as §1

SMILES | odorant receptor agonist call (OR5AN1 (Homo sapiens)) | odorant receptor agonist call (OR5AR1 (Homo sapiens)) | odorant receptor agonist call (OR5AS1 (Homo sapiens)) | odorant receptor agonist call (OR5AU1 (Homo sapiens)) | odorant receptor agonist call (OR5B17 (Homo sapiens)) | odorant receptor agonist call (OR5B2) | odorant receptor agonist call (OR5B3 (Homo sapiens)) | odorant receptor agonist call (OR5BC) | odorant receptor agonist call (OR5BL) | odorant receptor agonist call (OR5C1 (Homo sapiens)) | odorant receptor agonist call (OR5DD) | odorant receptor agonist call (OR5DE)
CC(=O)OC1CC2CCC1(C)C2(C)C (configuration not stated) | inactive | inactive | inactive | inactive | inactive | inactive | inactive | inactive | inactive | inactive | inactive | inactive
CCC=CCCO | inactive | inactive | inactive | inactive | inactive | inactive | inactive | inactive | inactive | inactive | inactive | inactive
C=CCc1ccc(OC(C)=O)c(OC)c1 | inactive | inactive | inactive | inactive |  | inactive | inactive | active | inactive | inactive | inactive | inactive
C=CCSCC=C | inactive | inactive | inactive | inactive | inactive | inactive | inactive | inactive | inactive | inactive | inactive | inactive
C=C(C)C1CCC2=CC(=O)CC(C)C2(C)C1 (configuration not stated) |  |  |  |  |  |  |  | inactive |  |  |  | 
CCCCCCCCOC(C)=O | inactive | inactive | inactive | inactive | inactive | inactive | inactive | inactive | inactive | inactive | inactive | inactive
COC(=O)c1ccccc1O | inactive | inactive | inactive | inactive | inactive | inactive | inactive | inactive | inactive | inactive | inactive | inactive
